{"source": "patent US20230293599A1", "about": "“BACTERIAL COMPOSITIONS WITH ANTI-INFLAMMATORY ACTIVITY” (Universiteit Gent, priority 2020, published 2023)", "settings_in_all_cases": "35 hours, absorbance 590 nm, n = 1; cells without values AUC < 50", "key": {"R. mucilaginosa": {"system": "R. mucilaginosa", "assay": "Biolog Phenotype Microarray PM1-2 growth on carbon sources", "format": "cell-based, Rothia mucilaginosa", "procedure": "(§1) Using Phenotype Microarray (PM) panels (Biolog), the influence of 190 carbon sources on the growth of the potential probiotic species R. mucilaginosa, R. dentocariosa, R. gilardii, G. haemolysans, and common respiratory pathogens P. aeruginosa, and S. aureus was determined. PM1 and PM2 panels (Biolog) were inoculated according to the manufacturer's instructions. Growth curves were generated for 35 hours by measuring the absorbance at 590 nm using an EnVision (Perkin Elmer) plate reader."}, "P. aeruginosa": {"system": "P. aeruginosa", "assay": "Biolog Phenotype Microarray PM1-2 growth on carbon sources", "format": "cell-based, Pseudomonas aeruginosa", "procedure": "as §1"}, "S. aureus": {"system": "S. aureus", "format": "cell-based, Staphylococcus aureus", "procedure": "as §1"}}, "data": [{"smiles": "NCCC[C@H](N)C(=O)O", "note": "[L-Ornithine]", "values": [{"measurement": "AUC of growth curve, R. mucilaginosa", "setting": "R. mucilaginosa", "value": 56.2}, {"measurement": "AUC of growth curve, P. aeruginosa", "setting": "P. aeruginosa", "value": 66.2}, {"measurement": "AUC of growth curve, S. aureus", "setting": "S. aureus", "value": 760.9}]}]}
